In paper PMC11729909:
No constants are given. Whether binding was seen depends on the method and setting. In cells and extracts the contact can be indirect. Some results given as binding are weak or reduced against the parent protein; the word gives no strength. Tags and fused reporters may be left off the sequences shown. Each block holds one binder with its values, some of them ahead of it.

Biological target: T1, FLAG-tagged FOXP1 (wild type, full length) (human) (UniProt Q9H334)
T1 sequence: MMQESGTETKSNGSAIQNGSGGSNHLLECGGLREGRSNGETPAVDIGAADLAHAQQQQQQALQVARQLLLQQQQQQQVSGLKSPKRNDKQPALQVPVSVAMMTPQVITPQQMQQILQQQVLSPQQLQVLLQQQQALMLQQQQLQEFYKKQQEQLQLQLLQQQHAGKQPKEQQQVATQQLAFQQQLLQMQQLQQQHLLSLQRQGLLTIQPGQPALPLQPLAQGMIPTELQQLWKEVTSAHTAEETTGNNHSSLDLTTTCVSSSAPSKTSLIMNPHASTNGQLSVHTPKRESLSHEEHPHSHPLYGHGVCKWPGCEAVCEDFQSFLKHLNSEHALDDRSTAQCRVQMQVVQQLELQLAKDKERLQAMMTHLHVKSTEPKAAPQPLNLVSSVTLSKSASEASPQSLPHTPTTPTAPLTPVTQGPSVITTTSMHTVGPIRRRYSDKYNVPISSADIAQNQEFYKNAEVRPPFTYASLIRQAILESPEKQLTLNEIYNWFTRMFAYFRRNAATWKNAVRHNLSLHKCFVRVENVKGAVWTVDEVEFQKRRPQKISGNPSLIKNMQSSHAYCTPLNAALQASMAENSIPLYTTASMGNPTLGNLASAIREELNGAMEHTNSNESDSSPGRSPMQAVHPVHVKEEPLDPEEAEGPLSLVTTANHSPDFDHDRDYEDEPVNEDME
Experiment: co-IP; HEK293T transfected with the indicated plasmids, lysed in NETN buffer, Anti-FLAG Affinity Gel 4 h at 4 °C, immunoblot; in some panels 2 mM HU, Thiamet-G, OGT siRNA, ATR inhibitors (VE-822, NU6027) or CHK1 inhibitors (Rabusertib, UCN-01)

binding: binds
B1: HA-tagged ATRIP (protein, UniProt Q8WXE1 1-791)
chain: MAGTSAPGSKRRSEPPAPRPGPPPGTGHPPSKRARGFSAAAAPDPDDPFGAHGDFTADDLEELDTLASQALSQCPAAARDVSSDHKVHRLLDGMSKNPSGKNRETVPIKDNFELEVLQAQYKELKEKMKVMEEEVLIKNGEIKILRDSLHQTESVLEEQRRSHFLLEQEKTQALSDKEKEFSKKLQSLQSELQFKDAEMNELRTKLQTSERANKLAAPSVSHVSPRKNPSVVIKPEACSPQFGKTSFPTKESFSANMSLPHPCQTESGYKPLVGREDSKPHSLRGDSIKQEEAQKSFVDSWRQRSNTQGSILINLLLKQPLIPGSSLSLCHLLSSSSESPAGTPLQPPGFGSTLAGMSGLRTTGSYDGSFSLSALREAQNLAFTGLNLVARNECSRDGDPAEGGRRAFPLCQLPGAVHFLPLVQFFIGLHCQALQDLAAAKRSGAPGDSPTHSSCVSSGVETNPEDSVCILEGFSVTALSILQHLVCHSGAVVSLLLSGVGADSAAGEGNRSLVHRLSDGDMTSALRGVADDQGQHPLLKMLLHLLAFSSAATGHLQASVLTQCLKVLVKLAENTSCDFLPRFQCVFQVLPKCLSPETPLPSVLLAVELLSLLADHDQLAPQLCSHSEGCLLLLLYMYITSRPDRVALETQWLQLEQEVVWLLAKLGVQSPLPPVTGSNCQCNVEVVRALTVMLHRQWLTVRRAGGPPRTDQQRRTVRCLRDTVLLLHGLSQKDKLFMMHCVEVLHQFDQVMPGVSMLIRGLPDVTDCEEAALDDLCAAETDVEDPEVECG

binding: binds
B2: OGT (endogenous) (enzyme, UniProt O15294 1-1046)
chain: MASSVGNVADSTEPTKRMLSFQGLAELAHREYQAGDFEAAERHCMQLWRQEPDNTGVLLLLSSIHFQCRRLDRSAHFSTLAIKQNPLLAEAYSNLGNVYKERGQLQEAIEHYRHALRLKPDFIDGYINLAAALVAAGDMEGAVQAYVSALQYNPDLYCVRSDLGNLLKALGRLEEAKACYLKAIETQPNFAVAWSNLGCVFNAQGEIWLAIHHFEKAVTLDPNFLDAYINLGNVLKEARIFDRAVAAYLRALSLSPNHAVVHGNLACVYYEQGLIDLAIDTYRRAIELQPHFPDAYCNLANALKEKGSVAEAEDCYNTALRLCPTHADSLNNLANIKREQGNIEEAVRLYRKALEVFPEFAAAHSNLASVLQQQGKLQEALMHYKEAIRISPTFADAYSNMGNTLKEMQDVQGALQCYTRAIQINPAFADAHSNLASIHKDSGNIPEAIASYRTALKLKPDFPDAYCNLAHCLQIVCDWTDYDERMKKLVSIVADQLEKNRLPSVHPHHSMLYPLSHGFRKAIAERHGNLCLDKINVLHKPPYEHPKDLKLSDGRLRVGYVSSDFGNHPTSHLMQSIPGMHNPDKFEVFCYALSPDDGTNFRVKVMAEANHFIDLSQIPCNGKAADRIHQDGIHILVNMNGYTKGARNELFALRPAPIQAMWLGYPGTSGALFMDYIITDQETSPAEVAEQYSEKLAYMPHTFFIGDHANMFPHLKKKAVIDFKSNGHIYDNRIVLNGIDLKAFLDSLPDVKIVKMKCPDGGDNADSSNTALNMPVIPMNTIAEAVIEMINRGQIQITINGFSISNGLATTQINNKAATGEEVPRTIIVTTRSQYGLPEDAIVYCNFNQLYKIDPSTLQMWANILKRVPNSVLWLLRFPAVGEPNIQQYAQNMGLPQNRIIFSPVAPKEEHVRRGQLADVCLDTPLCNGHTTGMDVLWAGTPMVTMPGETLASRVAASQLTCLGCLELIAKNRQEYEDIAVKLGTDLEYLKKVRGKVWKQRISSPLFNTKQYTMELERLYLQMWEHYAAGNKPDHMIKPVEVTESA
